Experimental data: the supplement of paper PMC12823440, “Inhibitors supercharge kinase turnover through native proteolytic circuits” (Nature, 2025)
The list shows a part of the results. The calls rarely recur for the same compound in another form.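 In K562 cells expressing nanoluciferase-fused kinases, luminescence was recorded at 4 h intervals between 2 and 18 h, normalized as percent of control with DMSO at 100% and a positive control at 0%. A significant (2 sigma) signal drop marks a time point as decreased. The authors' rule for a hit is not shown and takes in more than the number of time points.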

Amino acid sequences for entries named in this document (tags omitted). A change or cut given only in a name is not applied to a line headed by its entry.
UniProt P48729: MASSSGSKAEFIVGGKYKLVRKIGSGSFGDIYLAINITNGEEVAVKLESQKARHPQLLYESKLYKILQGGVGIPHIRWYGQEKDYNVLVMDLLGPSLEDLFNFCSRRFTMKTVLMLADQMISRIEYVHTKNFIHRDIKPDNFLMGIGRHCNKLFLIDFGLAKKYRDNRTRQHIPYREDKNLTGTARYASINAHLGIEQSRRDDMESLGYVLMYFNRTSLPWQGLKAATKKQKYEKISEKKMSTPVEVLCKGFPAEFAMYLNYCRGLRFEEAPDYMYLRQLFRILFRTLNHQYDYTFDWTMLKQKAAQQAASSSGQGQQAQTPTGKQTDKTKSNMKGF
UniProt P48730: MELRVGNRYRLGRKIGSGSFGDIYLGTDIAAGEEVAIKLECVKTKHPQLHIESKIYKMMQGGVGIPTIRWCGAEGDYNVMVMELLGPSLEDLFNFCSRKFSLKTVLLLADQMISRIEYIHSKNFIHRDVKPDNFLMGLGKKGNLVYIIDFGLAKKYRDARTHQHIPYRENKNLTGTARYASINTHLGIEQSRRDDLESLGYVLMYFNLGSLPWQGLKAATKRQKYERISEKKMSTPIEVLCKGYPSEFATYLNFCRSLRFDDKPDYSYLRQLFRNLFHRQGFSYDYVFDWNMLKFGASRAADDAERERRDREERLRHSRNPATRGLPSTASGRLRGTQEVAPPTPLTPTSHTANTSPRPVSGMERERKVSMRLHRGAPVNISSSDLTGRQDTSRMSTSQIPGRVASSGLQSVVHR
UniProt Q08345: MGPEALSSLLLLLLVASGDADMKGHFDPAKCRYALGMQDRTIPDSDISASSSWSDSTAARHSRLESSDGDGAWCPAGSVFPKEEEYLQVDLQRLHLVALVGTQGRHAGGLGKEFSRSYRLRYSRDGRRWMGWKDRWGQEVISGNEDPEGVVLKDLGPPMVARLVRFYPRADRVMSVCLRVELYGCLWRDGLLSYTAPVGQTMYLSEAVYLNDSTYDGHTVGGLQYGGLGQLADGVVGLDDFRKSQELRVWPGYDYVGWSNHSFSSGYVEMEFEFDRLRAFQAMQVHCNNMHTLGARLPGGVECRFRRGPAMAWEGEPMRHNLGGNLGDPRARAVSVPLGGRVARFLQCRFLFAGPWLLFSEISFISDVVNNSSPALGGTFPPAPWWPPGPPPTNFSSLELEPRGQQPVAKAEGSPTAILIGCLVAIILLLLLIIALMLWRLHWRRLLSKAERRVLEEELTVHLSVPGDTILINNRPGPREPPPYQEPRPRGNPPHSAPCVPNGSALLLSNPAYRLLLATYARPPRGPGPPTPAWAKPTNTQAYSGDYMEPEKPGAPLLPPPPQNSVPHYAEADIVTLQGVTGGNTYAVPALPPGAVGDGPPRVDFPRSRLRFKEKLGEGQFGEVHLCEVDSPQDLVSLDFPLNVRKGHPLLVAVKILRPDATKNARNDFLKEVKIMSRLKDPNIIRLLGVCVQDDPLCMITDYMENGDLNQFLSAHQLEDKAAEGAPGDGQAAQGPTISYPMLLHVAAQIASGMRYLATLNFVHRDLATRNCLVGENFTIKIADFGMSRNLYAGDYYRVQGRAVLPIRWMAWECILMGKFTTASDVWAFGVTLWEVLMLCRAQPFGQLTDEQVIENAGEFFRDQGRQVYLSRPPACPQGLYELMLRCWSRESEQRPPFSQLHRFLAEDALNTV
UniProt Q9Y463, whole entry, looked up: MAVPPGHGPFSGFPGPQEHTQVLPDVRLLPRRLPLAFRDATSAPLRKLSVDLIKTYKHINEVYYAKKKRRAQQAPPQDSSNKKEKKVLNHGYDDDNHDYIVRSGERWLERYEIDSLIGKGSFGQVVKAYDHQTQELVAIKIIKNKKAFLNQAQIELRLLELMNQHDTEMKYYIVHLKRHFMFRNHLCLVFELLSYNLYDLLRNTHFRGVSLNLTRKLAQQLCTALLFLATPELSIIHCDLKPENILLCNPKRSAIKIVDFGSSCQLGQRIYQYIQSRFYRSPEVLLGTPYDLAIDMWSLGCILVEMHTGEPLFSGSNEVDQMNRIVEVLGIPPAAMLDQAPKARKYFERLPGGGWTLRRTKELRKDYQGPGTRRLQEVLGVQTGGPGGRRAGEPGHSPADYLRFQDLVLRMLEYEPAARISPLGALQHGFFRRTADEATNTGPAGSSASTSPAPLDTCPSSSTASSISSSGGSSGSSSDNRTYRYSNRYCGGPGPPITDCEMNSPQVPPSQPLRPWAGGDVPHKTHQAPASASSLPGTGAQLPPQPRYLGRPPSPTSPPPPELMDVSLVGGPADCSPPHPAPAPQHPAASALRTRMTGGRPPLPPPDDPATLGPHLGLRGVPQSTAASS
UniProt Q92630: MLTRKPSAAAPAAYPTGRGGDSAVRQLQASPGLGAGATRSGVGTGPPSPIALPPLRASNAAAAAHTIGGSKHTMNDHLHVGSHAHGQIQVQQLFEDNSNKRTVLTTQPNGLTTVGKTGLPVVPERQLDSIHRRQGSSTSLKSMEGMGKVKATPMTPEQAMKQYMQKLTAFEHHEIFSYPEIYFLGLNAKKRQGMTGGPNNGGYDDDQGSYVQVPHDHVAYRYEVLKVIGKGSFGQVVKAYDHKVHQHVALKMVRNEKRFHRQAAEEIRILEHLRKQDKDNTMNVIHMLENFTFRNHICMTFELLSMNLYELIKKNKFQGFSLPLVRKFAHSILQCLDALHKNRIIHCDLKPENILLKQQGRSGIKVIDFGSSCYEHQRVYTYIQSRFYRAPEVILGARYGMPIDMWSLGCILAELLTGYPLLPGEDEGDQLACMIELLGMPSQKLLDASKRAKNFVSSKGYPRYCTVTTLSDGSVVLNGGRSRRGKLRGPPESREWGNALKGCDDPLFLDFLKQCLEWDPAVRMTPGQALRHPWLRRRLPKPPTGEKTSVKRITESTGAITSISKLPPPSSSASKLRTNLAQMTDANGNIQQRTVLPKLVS

Assays:
Test in all cases: number of time points (of 5) at which kinase-Nluc abundance scored as decreased, DMSO-normalised (count); higher = more persistent destabilization
Details in all cases: K562; 2-18 h
[1] = target: CSNK1A1 (UniProt P48729)
[2] = target: CSNK1D (UniProt P48730)
[3] = target: DDR1 (UniProt Q08345)
[4] = target: DYRK1B (UniProt Q9Y463)
[5] = target: DYRK2 (UniProt Q92630)
[6] = target: EGFR (UniProt P00533)
[7] = target: EGFR_G719S (UniProt P00533)
[8] = target: EGFR_G719S_T790M (UniProt P00533)
[9] = target: EGFR_L718V (UniProt P00533)
[10] = target: EGFR_L858R (UniProt P00533)

Measured: number of time points

CC(C)(O)[C@@H]1CC[C@](C)([C@H]2[C@@H](O)C[C@@]3(C)[C@@H]4C[C@H](O[C@@H]5O[C@H](CO)[C@@H](O)[C@H](O)[C@H]5O)[C@H]5C(C)(C)[C@@H](O[C@@H]6OC[C@@H](O)[C@H](O)[C@H]6O[C@@H]6O[C@H](CO)[C@@H](O)[C@H](O)[C@H]6O)CC[C@@]56C[C@@]46CC[C@]23C)O1 [Astragaloside VI] (10 µM)
0: all assays above

CC(C)N(C)c1nc2cc(C(=O)O)ccc2nc1-c1ccc(F)cc1 (10 µM)
0: all assays above

COc1cc(-c2cc(-c3cc(OC)c(OC)c(OC)c3)cc(C(F)P(=O)(OCOC(=O)C(C)(C)C)OCOC(=O)C(C)(C)C)c2)cc(OC)c1OC (stereo not given) [Stafia-1-dipivaloyloxymethyl ester] (2.5 µM)
0: all assays above

O=C(O)c1cc(O)c2c(c1)[C@@H]([C@H]1c3cc(C(=O)O)cc(O)c3C(=O)c3c(O[C@@H]4O[C@H](CO)[C@@H](O)[C@H](O)[C@H]4O)cccc31)c1cccc(O[C@@H]3O[C@H](CO)[C@@H](O)[C@H](O)[C@H]3O)c1C2=O [Sennoside B] (2.5 µM)
0: all assays above

Cc1cc2cc(Oc3ccnc(Nc4cccc(CS(=O)(=O)NCCN(C)C)c4)n3)ccc2[nH]1 [Sulfatinib] (10 µM)
3: [5]
2: [3]
0: all other assays above

c1ccc(-c2oc3ncnc(NC[C@@H]4CCCO4)c3c2-c2ccccc2)cc1 (2.5 µM)
0: all assays above

CC1(N)CCN(c2cnc3c(-c4cccc(Cl)c4Cl)[nH]nc3n2)CC1 (2.5 µM)
0: all assays above

OCCN(CCO)c1ccc(C(c2ccc(Cl)cc2)c2ccc(N(CCO)CCO)cc2)cc1 (10 µM)
3: [7]
4: [5]
1: [1] | [3] | [8]
2: [4]
0: all other assays above

COc1ccc2c(Oc3ccc(NC(=O)c4c(C)n(CC(C)(C)O)n(-c5ccccc5)c4=O)cc3F)ccnc2c1 (2.5 µM)
3: [5]
1: [4]
0: all other assays above

CN(C)c1nc2c(Br)c(Br)c(Br)c(Br)c2n1CC(=O)O (10 µM)
0: all assays above

CC1=C(C(=O)Nc2ccc3[nH]ncc3c2)C(c2ccc(F)cc2)NC(=O)N1 (stereo not given) (10 µM)
0: all assays above

CC[C@@H]1[C@H](F)C(=O)N[C@@H]1COc1nccc2cc(C(N)=O)c(OC)cc12 (10 µM)
0: all assays above

N#C/C(=C(/N)Sc1ccc(N)cc1)c1ccccc1C(F)(F)F (10 µM)
0: all assays above

O=c1nc(N2CCOCC2)oc2c(-c3cccc4c3sc3ccccc34)cccc12 (10 µM)
0: all assays above

C=CC(=O)N1CCC(Oc2cc3c(Nc4ccc(Cl)c(Cl)c4F)ncnc3cc2OC)CC1 [Poziotinib] (2.5 µM)
0: all assays above

CC[C@@H](N)CNc1ccnc(-c2cc(-c3cnn(C)c3)ccc2O)n1 (2.5 µM)
1: [5]
0: all other assays above

As a short view, 2 of the compounds above:
O=c1nc(N2CCOCC2)oc2c(-c3cccc4c3sc3ccccc34)cccc12 (10 µM)
0: all assays above

C=CC(=O)N1CCC(Oc2cc3c(Nc4ccc(Cl)c(Cl)c4F)ncnc3cc2OC)CC1 [Poziotinib] (2.5 µM)
0: all assays above

More compounds:

COc1ccc(-n2c(C)c([N+](=O)[O-])c3ccc(O)cc32)cc1 (10 µM)
0: all assays above
